{
  "sequences": {"note": "Amino acid sequences for entries named in this document (tags omitted).", "UniProt P25694": "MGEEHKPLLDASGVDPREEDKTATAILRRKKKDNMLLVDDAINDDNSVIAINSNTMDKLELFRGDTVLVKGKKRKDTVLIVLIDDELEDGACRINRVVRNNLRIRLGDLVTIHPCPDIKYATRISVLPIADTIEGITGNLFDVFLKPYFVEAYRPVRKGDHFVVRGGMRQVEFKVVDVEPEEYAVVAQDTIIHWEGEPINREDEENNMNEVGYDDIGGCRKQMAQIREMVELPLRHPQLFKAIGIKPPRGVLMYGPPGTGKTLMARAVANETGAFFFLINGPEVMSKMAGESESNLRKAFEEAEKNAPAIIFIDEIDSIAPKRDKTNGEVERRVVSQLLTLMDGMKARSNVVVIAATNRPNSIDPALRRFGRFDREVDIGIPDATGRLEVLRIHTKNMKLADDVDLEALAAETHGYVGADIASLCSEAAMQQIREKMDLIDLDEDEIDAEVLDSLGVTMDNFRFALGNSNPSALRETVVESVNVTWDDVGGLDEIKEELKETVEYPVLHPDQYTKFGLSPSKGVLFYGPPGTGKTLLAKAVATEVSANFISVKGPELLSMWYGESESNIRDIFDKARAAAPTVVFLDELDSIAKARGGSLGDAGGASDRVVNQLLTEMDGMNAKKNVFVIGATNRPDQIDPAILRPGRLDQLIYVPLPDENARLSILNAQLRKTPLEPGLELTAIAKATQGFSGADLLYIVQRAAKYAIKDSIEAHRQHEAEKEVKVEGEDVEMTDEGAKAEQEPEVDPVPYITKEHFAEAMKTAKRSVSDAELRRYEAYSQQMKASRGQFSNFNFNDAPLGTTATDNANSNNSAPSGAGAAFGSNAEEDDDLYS"},
  "source": "paper PMC4579843",
  "target": "Cdc48 (S. cerevisiae (endogenous in W303)) (UniProt P25694)",
  "assay": "co-IP; endogenous Cdc48 immunoprecipitated with goat polyclonal anti-Cdc48 antibodies (Abgent) and Dynabeads Protein G from extract of asynchronous WT cells expressing Est1-Myc9; TMG-50 (10 mM Tris-HCl pH 8.0, 50 mM NaCl) with 0.5% Tween-20, 4 °C; anti-Myc western blot; untagged cells as control",
  "note": "No constants are given. Whether binding was seen depends on the method and setting. Binding seen in cells or lysates may run through a third protein. Some results given as binding are weak or reduced against the parent protein; the word gives no strength. Sequences can lack the tags named with a protein.",
  "data": [
    {"binder": "Est1-Myc9 (protein, UniProt P17214 1-699) MDNEEVNEECMRLFFKNARAHLDKHLTSRLTCDENAYITFRCFLDGIHRKSTRFLEELLLKQENMYHNNNYERINDSVIPLVLKLLWLQIHEPTLQWFEHWFHDIMRLSNRRKFRVFRIFQKKMIQFFKITHRYYYDIIEHLCAKYDMNSVISNALFAKLNLMQYTDGLSTHEKIILNTSNPLTFSIVISLQRCVINLGSTHFYKTLLNKPSNKPKSVEGFEKSIRYLNIASLYLPAVGDTYFQRAKIYLITGKFSLYFFELVRGALVRIPSKCALNNLKDFILTPDFPERRRLMKKLAILVSKDLKGEKSFFEGQIVLQFLSIVEHTLVPQSWNASRASNCWLLKEHLQMAALKYHSGNINVILENLAATMGSFDLMFTTRKSKEQKNKLKYADLSERQVFFLDLSFDFIANIIDVVIKPSWQKNMEDFRYLAIIRLLMCWIKSYRSILQYTHRHRKFCTSFALLLNDLINSPLNCSGNIYSHRPKRSYLFREDIIFREFSCINFALTDFNDDYVYDSPDMINNIIGCPTLTKVLSPKEECVLRIRSIIFSGMKFLEKNDTGVIWNASKYKFDLISPNIKIKRQIALSEISSKINVKTQQERVVSSRKVEAKRDEQQRKRAGKIAVTELEKQFANVRRTKKLSPLPEKDGVSSELVKHAASRGRKTITGPLSSDFLSYPDEAIDADEDITVQVPDTPT", "values": [
      {"measurement": "binding", "result": "binds"}
    ]}
  ]
}
